# Measured values as given in PMC11884595.
# Protein sequences, listed by entry. Tags and fused reporters are not part of them.
# UniProt Q9Z0Z3: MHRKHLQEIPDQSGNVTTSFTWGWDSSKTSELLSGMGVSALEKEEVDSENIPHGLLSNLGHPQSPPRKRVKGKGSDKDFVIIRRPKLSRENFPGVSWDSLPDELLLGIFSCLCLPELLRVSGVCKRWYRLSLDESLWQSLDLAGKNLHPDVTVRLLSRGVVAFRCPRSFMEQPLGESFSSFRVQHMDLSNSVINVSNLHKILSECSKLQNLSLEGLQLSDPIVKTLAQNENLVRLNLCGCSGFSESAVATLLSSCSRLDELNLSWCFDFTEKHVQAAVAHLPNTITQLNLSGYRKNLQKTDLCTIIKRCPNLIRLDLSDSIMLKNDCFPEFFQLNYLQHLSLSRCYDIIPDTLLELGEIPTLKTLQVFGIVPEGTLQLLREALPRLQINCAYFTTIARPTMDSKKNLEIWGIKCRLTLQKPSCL
# These are yes or no findings as the source states them, for the method shown. Binding seen in cells or lysates may run through a third protein. Some binding calls cover weakened binding; strength is not graded here.
# Target: p62 (endogenous, granulosa cells) (mouse (endogenous in primary GCs)) (UniProt Q64337)
# Assay: co-IP; insoluble fractions of GCs with anti-p62 and anti-SKP2 antibodies; protein-A agarose beads, 4 °C; GCs (WT, si-SKP2) treated with or without miR-1246 enriched-EVs for 24 h
substance,measurement,value
"SKP2 (endogenous, granulosa cells) (from UniProt Q9Z0Z3 1-424)",binding,binds
